Results are given in words; binding and its absence hold for the method and conditions named. In cells and extracts the contact can be indirect. Some binding calls cover weakened binding; strength is not graded here.

Protein sequences, listed by entry. Tags and fused reporters are not part of them.
UniProt Q03018, whole entry: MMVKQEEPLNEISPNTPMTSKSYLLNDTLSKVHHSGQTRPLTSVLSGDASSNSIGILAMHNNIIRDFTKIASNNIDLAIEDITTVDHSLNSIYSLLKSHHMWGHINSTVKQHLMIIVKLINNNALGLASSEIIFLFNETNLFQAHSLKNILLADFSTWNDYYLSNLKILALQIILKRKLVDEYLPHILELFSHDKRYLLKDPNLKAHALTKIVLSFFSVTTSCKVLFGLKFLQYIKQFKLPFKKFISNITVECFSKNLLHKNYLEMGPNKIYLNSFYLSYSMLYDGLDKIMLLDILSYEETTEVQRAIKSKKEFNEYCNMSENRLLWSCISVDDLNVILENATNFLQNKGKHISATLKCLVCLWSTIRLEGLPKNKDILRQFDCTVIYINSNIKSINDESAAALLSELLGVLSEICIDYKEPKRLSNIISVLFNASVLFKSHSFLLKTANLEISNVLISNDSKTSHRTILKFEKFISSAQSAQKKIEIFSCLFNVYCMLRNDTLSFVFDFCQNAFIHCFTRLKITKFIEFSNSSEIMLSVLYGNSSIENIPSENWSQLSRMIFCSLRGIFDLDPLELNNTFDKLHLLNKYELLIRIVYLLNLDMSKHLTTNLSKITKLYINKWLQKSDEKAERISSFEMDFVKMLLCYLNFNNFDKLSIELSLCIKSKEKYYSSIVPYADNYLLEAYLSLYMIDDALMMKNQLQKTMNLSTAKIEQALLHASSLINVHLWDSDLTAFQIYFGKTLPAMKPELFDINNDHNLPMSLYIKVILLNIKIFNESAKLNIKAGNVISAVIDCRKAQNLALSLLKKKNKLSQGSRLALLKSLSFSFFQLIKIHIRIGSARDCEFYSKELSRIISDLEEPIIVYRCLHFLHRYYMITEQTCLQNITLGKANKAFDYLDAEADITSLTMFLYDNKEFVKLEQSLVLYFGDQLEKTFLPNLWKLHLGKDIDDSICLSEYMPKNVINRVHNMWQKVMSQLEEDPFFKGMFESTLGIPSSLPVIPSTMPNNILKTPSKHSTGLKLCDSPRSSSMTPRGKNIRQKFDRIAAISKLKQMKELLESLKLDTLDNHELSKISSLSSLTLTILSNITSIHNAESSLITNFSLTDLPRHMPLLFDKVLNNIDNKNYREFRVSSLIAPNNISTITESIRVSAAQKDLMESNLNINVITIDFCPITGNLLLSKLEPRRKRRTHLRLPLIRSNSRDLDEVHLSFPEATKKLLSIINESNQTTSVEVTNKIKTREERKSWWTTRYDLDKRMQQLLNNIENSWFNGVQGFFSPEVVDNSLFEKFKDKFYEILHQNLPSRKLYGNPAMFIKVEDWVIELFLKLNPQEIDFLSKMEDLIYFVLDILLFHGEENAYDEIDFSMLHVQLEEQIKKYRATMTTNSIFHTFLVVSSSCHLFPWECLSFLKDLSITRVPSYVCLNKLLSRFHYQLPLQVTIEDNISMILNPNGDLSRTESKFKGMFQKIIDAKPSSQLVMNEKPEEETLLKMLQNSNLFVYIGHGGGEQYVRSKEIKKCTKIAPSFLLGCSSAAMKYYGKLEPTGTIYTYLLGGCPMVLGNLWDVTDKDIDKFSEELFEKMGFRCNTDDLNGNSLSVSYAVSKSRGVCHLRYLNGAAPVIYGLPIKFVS

The target in the assay is Esp1-9MYC (S. cerevisiae) (UniProt Q03018). As to the kind of experiment: co-IP.

B1: Pds1-6HA (protein, UniProt P40316 1-373)
chain: MMPANEDKENNIVYTGNESSGINFPQTPAHLLKRSHSNILKPPVRLDQLKRDANSNNGNTLKYIQGGKEVSPTKRLHTHAQQQGRLPLAAKDNNRSKSFIFPETSNQSKDADLPQLQNTLSIRKNDQLRKLSQISRSRSRANHNDLLSNSRKLQKYGSVLGYNALPKMKSLVLKDLADSGKNEESSDDDEGNEDSESKLGKKLQSALLKQDSSDGENELNGGLGLFNEQGGLQQLIKNSTKNEQKTKNDKSDKTDDYDIEIAPQRQEPLPYVPEGYSPFQQDDIEKLKTFNSPYKLDLEDEDDTPDKVDLLPLEQIDEEGEKDETECITRNQEEGAALPLLSKNFKEVAAVPTMELVYSEEGLDPEELEDLVT
Turning to B1, the binding entry is given as “binds”.

The values are drawn from paper doi:10.1101/648386.
